Patent publication US10603301B2, “Cannabis-based extracts and topical formulations for use in skin disorders” (ONE WORLD CANNABIS LTD, priority 2014, dated 2020)
At least one compound was matched to its structure with a doubt left.

Tested on: LPS/EGF-induced hyperproliferation of human skin explants
Experiment: Epidermis turnover rate by BrdU in LPS/EGF-stimulated human skin organ culture
Type: cell-based
Details: Phase B, ethanol extracts 3% / formulations 2 mg/cm2 / dexamethasone 10 μM, with LPS/EGF, 48 hr

C[C@@H]1C[C@H]2[C@@H]3CCC4=CC(=O)C=C[C@]4(C)[C@@]3(F)[C@@H](O)C[C@]2(C)[C@@]1(O)C(=O)CO [Dexamethasone]
epidermal turnover rate (BrdU), LPS/EGF-induced hyperproliferation: completely block this enhancement
